Experimental data: article PMC10318467
Where a chain is given by its changes, count along the chain named. Names may count otherwise. These are yes or no findings as the source states them, for the method shown. Some binding calls cover weakened binding; strength is not graded here. Tags and fused reporters may be left off the sequences shown.

Amino acid sequences for entries named in this document (tags omitted).
UniProt P52297: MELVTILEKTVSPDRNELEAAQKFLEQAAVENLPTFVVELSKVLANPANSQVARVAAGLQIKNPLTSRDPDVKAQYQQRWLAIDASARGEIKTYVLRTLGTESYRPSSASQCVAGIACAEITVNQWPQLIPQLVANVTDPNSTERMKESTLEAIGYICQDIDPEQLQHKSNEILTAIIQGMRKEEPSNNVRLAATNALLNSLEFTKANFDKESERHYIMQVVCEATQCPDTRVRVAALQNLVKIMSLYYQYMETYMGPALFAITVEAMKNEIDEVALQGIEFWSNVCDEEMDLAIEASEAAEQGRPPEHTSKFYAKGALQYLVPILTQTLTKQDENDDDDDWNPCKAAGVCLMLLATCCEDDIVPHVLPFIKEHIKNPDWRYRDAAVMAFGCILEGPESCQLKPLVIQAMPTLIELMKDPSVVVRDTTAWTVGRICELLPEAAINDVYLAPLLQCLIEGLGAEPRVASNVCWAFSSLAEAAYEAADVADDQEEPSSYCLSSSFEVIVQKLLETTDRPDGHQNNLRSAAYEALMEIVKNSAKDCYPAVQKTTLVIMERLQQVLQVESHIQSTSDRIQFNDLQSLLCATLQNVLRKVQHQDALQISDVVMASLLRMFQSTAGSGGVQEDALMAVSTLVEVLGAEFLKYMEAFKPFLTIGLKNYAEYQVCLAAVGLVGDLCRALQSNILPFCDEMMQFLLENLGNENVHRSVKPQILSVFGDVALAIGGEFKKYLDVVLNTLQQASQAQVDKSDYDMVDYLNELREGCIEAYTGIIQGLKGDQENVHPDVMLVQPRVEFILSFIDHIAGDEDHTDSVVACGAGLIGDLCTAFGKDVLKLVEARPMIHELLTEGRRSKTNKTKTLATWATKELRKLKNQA

T1: GST-GFP-Haus8^1–150 (X. laevis) (UniProt Q0IHJ3)
T1 sequence: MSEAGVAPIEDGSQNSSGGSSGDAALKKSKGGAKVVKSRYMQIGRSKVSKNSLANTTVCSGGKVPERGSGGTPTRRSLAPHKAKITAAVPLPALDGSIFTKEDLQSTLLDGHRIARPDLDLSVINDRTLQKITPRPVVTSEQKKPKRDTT

B1: Strep-GFP-Haus8^1–150 ΔNLS1 (K27A/K28A) (domain or fragment, UniProt Q0IHJ3 1-150)
chain: T1 sequence with K27A, K28A
B2: Strep-GFP-Haus8^1–150 ΔNLS2 (K143A/K144A) (domain or fragment, UniProt Q0IHJ3 1-150)
chain: T1 sequence with K143A, K144A
B3: Strep-GFP-Haus8^1–150 with mutations to both NLS sites (K27A/K28A and K143A/K144A) (domain or fragment, UniProt Q0IHJ3 1-150)
chain: T1 sequence with K27A, K28A, K143A, K144A
B4: Strep-GFP-Haus8^1–150 (domain or fragment, UniProt Q0IHJ3 1-150)
chain: T1 sequence

Key:
[1] = target: T1, GST-GFP-Haus8^1–150 (X. laevis); assay: TIRF microscopy of binding to immobilised microtubules; as a5, 100 nM GFP-labeled Haus8 or augmin incubated on ice for 10 min with a 10-fold molar excess of importins (and Ran^Q69L) before the flow chamber; both purified
[2] = target: GST-importin-β (X. laevis) (UniProt P52297); assay: pull-down; 2 μM GST-importin on magnetic glutathione agarose; 2 μM GFP-Haus8 (1–150) or 200 nM augmin complex; low-salt CSFxB with 0.1% Tween-20, 4 °C, 2 h; Western blot with α-Strep or α-Haus1; both purified

binding [1] | binding [2] | Molecule
binds |  | GST-importin-β (from UniProt P52297 1-876)
 | binds | B1
 | binds | B2
 | binds | B3
 | binds | B4
